# Test results taken from the supplement of paper PMC8728848.
# Some of the results follow.
# Columns and labels:
# Experiment in all cases: glycan array binding signal (z-score within array); higher = stronger binding
# Conditions in all cases: glycan notation: IUPAC condensed, linker removed
# [1] = molecular target: Man(a1-2)Man(a1-6)[Man(a1-3)]Man(a1-6)[Man(a1-2)Man(a1-2)Man(a1-3)]Man(b1-4)GlcNAc(b1-4)GlcNAc
# Method in brief: (§1)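 Columns mapping to the same glycan were averaged after glycan names were converted to IUPAC-condensed notation. The data come from 3228 arrays in the Consortium for Functional Glycomics database, limited to those with an available protein sequence. Binding is reported as a within-array Z-score averaged across arrays of one protein sequence and across linkers.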
# [2] = molecular target: Man(a1-3)[Man(a1-6)]Man
# Method in brief: as §1
# [3] = molecular target: Man(a1-3)[Man(a1-6)]Man(a1-6)[Man(a1-2)Man(a1-3)]Man(b1-4)GlcNAc(b1-4)GlcNAc
# Method in brief: as §1
# [4] = molecular target: Man(a1-3)[Man(a1-6)]Man(a1-6)[Man(a1-3)]Man
# Method in brief: as §1
# [5] = molecular target: Man(a1-3)[Man(a1-6)]Man(a1-6)[Man(a1-3)]Man(b1-4)GlcNAc(b1-4)GlcNAc
# Method in brief: as §1
# [6] = molecular target: Man(a1-3)[Man(a1-6)]Man(b1-4)GlcNAc(b1-4)GlcNAc
# Method in brief: as §1
# [7] = molecular target: Man(a1-6)Man
# Method in brief: as §1
# [8] = molecular target: Man(b1-4)GlcNAc
# Method in brief: as §1
# [9] = molecular target: Neu5Ac(a2-3)Gal
# Method in brief: as §1
# [10] = molecular target: Neu5Ac(a2-3)Gal(b1-3)GalNAc
# Method in brief: as §1
# [11] = molecular target: Neu5Ac(a2-3)Gal(b1-3)GalNAc(b1-3)Gal(a1-4)Gal(b1-4)Glc
# Method in brief: as §1
# [12] = molecular target: Neu5Ac(a2-3)Gal(b1-3)GalNAc(b1-4)[Neu5Ac(a2-3)]Gal(b1-4)Glc
# Method in brief: as §1
# [13] = molecular target: Neu5Ac(a2-3)Gal(b1-3)GalNAc6S
# Method in brief: as §1
# [14] = molecular target: Neu5Ac(a2-3)Gal(b1-3)GlcNAc
# Method in brief: as §1
# [15] = molecular target: Neu5Ac(a2-3)Gal(b1-3)GlcNAc(b1-2)Man(a1-3)[Neu5Ac(a2-3)Gal(b1-3)GlcNAc(b1-2)Man(a1-6)]Man(b1-4)GlcNAc(b1-4)GlcNAc
# Method in brief: as §1
# [16] = molecular target: Neu5Ac(a2-3)Gal(b1-3)GlcNAc(b1-3)Gal(b1-3)GlcNAc
# Method in brief: as §1
# [17] = molecular target: Neu5Ac(a2-3)Gal(b1-3)GlcNAc(b1-3)Gal(b1-4)GlcNAc
# Method in brief: as §1
# [18] = molecular target: Neu5Ac(a2-3)Gal(b1-3)GlcNAc(b1-3)GalNAc
# Method in brief: as §1
# [19] = molecular target: Neu5Ac(a2-3)Gal(b1-3)GlcNAc6S
# Method in brief: as §1
# [20] = molecular target: Neu5Ac(a2-3)Gal(b1-3)[Fuc(a1-4)]GlcNAc
# Method in brief: as §1
# [21] = molecular target: Neu5Ac(a2-3)Gal(b1-3)[Fuc(a1-4)]GlcNAc(b1-3)Gal(b1-3)[Fuc(a1-4)]GlcNAc
# Method in brief: as §1
# [22] = molecular target: Neu5Ac(a2-3)Gal(b1-3)[Fuc(a1-4)]GlcNAc(b1-3)Gal(b1-4)[Fuc(a1-3)]GlcNAc
# Method in brief: as §1
# [23] = molecular target: Neu5Ac(a2-3)Gal(b1-3)[Neu5Ac(a2-3)Gal(b1-4)]GlcNAc
# Method in brief: as §1
# [24] = molecular target: Neu5Ac(a2-3)Gal(b1-3)[Neu5Ac(a2-6)]GalNAc
# Method in brief: as §1
# [25] = molecular target: Neu5Ac(a2-3)Gal(b1-4)Glc
# Method in brief: as §1
# [26] = molecular target: Neu5Ac(a2-3)Gal(b1-4)GlcNAc
# Method in brief: as §1
# [27] = molecular target: Neu5Ac(a2-3)Gal(b1-4)GlcNAc(b1-2)Man(a1-3)[GlcNAc(b1-2)Man(b1-4)GlcNAc(b1-2)Man(a1-6)]Man(b1-4)GlcNAc(b1-4)GlcNAc
# Method in brief: as §1
# [28] = molecular target: Neu5Ac(a2-3)Gal(b1-4)GlcNAc(b1-2)Man(a1-3)[Neu5Ac(a2-6)Gal(b1-4)GlcNAc(b1-2)Man(a1-6)]Man(b1-4)GlcNAc(b1-4)GlcNAc
# Method in brief: as §1
# [29] = molecular target: Neu5Ac(a2-3)Gal(b1-4)GlcNAc(b1-3)Gal(b1-3)GlcNAc
# Method in brief: as §1
# [30] = molecular target: Neu5Ac(a2-3)Gal(b1-4)GlcNAc(b1-3)Gal(b1-4)GlcNAc
# Method in brief: as §1
# [31] = molecular target: Neu5Ac(a2-3)Gal(b1-4)GlcNAc(b1-3)Gal(b1-4)GlcNAc(b1-3)Gal(b1-4)GlcNAc
# Method in brief: as §1
# [32] = molecular target: Neu5Ac(a2-3)Gal(b1-4)GlcNAc(b1-3)Gal(b1-4)[Fuc(a1-3)]GlcNAc
# Method in brief: as §1
# [33] = molecular target: Neu5Ac(a2-3)Gal(b1-4)GlcNAc(b1-3)GalNAc
# Method in brief: as §1
# [34] = molecular target: Neu5Ac(a2-3)Gal(b1-4)GlcNAc(b1-6)[Gal(b1-3)]GalNAc
# Method in brief: as §1
# [35] = molecular target: Neu5Ac(a2-3)Gal(b1-4)GlcNAc(b1-6)[Neu5Ac(a2-3)Gal(b1-3)]GalNAc
# Method in brief: as §1
# [36] = molecular target: Neu5Ac(a2-3)Gal(b1-4)GlcNAc6S
# Method in brief: as §1
# [37] = molecular target: Neu5Ac(a2-3)Gal(b1-4)[Fuc(a1-3)]GlcNAc
# Method in brief: as §1
binder,measurement,setting,value
"SAG1 (Toxoplasma gondii), P13664 (protein) MSVSLHHFIISSGFLTSMFPKAVRRAVTAGVFAAPTLMSFLRCGVMASDPPLVANQVVTCPDKKSTAAVILTPTENHFTLKCPKTALTEPPTLAYSPNRQICPAGTTSSCTSKAVTLSSLIPEAEDSWWTGDSASLDTAGIKLTVPIEKFPVTTQTFVVGCIKGDDAQSCMVTVTVQARASSVVNNVARCSYGADSTLGPVKLSAEGPTTMTLVCGKDGVKVPQDNNQYCSGTTLTGCNEKSFKDILPKLTENPWQGNASSDKGATLTIKKEAFPAESKSVIIGCTGGSPEKHHCTVKLEFAGAAGSAKSAAGTASHVSIFAMVIGLIGSIAACVA",glycan array binding signal (z-score),[1],-0.129
same,glycan array binding signal (z-score),[2],-0.088
same,glycan array binding signal (z-score),[3],0.422
same,glycan array binding signal (z-score),[4],-0.442
same,glycan array binding signal (z-score),[5],0.667
same,glycan array binding signal (z-score),[6],-0.356
same,glycan array binding signal (z-score),[7],-0.539
same,glycan array binding signal (z-score),[8],-0.564
same,glycan array binding signal (z-score),[9],0.387
same,glycan array binding signal (z-score),[10],-0.13
same,glycan array binding signal (z-score),[11],0.861
same,glycan array binding signal (z-score),[12],0.728
same,glycan array binding signal (z-score),[13],-0.871
same,glycan array binding signal (z-score),[14],0
same,glycan array binding signal (z-score),[15],0.289
same,glycan array binding signal (z-score),[16],0.558
same,glycan array binding signal (z-score),[17],0.888
same,glycan array binding signal (z-score),[18],-0.984
same,glycan array binding signal (z-score),[19],-0.099
same,glycan array binding signal (z-score),[20],-0.451
same,glycan array binding signal (z-score),[21],-0.35
same,glycan array binding signal (z-score),[22],-1.01
same,glycan array binding signal (z-score),[23],-0.501
same,glycan array binding signal (z-score),[24],-0.007
same,glycan array binding signal (z-score),[25],-0.371
same,glycan array binding signal (z-score),[26],-0.545
same,glycan array binding signal (z-score),[27],-0.884
same,glycan array binding signal (z-score),[28],0.266
same,glycan array binding signal (z-score),[29],0.139
same,glycan array binding signal (z-score),[30],-0.542
same,glycan array binding signal (z-score),[31],-0.703
same,glycan array binding signal (z-score),[32],1.71
same,glycan array binding signal (z-score),[33],-0.406
same,glycan array binding signal (z-score),[34],-0.436
same,glycan array binding signal (z-score),[35],1.61
same,glycan array binding signal (z-score),[36],-0.704
same,glycan array binding signal (z-score),[37],-0.651

# Rewritten with tabs: part of the list above.
binder	measurement	setting	value
SAG1 (Toxoplasma gondii), P13664 (protein) MSVSLHHFIISSGFLTSMFPKAVRRAVTAGVFAAPTLMSFLRCGVMASDPPLVANQVVTCPDKKSTAAVILTPTENHFTLKCPKTALTEPPTLAYSPNRQICPAGTTSSCTSKAVTLSSLIPEAEDSWWTGDSASLDTAGIKLTVPIEKFPVTTQTFVVGCIKGDDAQSCMVTVTVQARASSVVNNVARCSYGADSTLGPVKLSAEGPTTMTLVCGKDGVKVPQDNNQYCSGTTLTGCNEKSFKDILPKLTENPWQGNASSDKGATLTIKKEAFPAESKSVIIGCTGGSPEKHHCTVKLEFAGAAGSAKSAAGTASHVSIFAMVIGLIGSIAACVA	glycan array binding signal (z-score)	[6]	-0.356
same	glycan array binding signal (z-score)	[9]	0.387
same	glycan array binding signal (z-score)	[13]	-0.871
same	glycan array binding signal (z-score)	[23]	-0.501
same	glycan array binding signal (z-score)	[25]	-0.371
same	glycan array binding signal (z-score)	[28]	0.266
same	glycan array binding signal (z-score)	[35]	1.61
